This test concerns the target GFP-UBR5 (wild-type) (UniProt O95071). Briefly: co-IP.

Sequences of proteins named here, by UniProt entry; tags and fusion partners are left off.
UniProt O95071: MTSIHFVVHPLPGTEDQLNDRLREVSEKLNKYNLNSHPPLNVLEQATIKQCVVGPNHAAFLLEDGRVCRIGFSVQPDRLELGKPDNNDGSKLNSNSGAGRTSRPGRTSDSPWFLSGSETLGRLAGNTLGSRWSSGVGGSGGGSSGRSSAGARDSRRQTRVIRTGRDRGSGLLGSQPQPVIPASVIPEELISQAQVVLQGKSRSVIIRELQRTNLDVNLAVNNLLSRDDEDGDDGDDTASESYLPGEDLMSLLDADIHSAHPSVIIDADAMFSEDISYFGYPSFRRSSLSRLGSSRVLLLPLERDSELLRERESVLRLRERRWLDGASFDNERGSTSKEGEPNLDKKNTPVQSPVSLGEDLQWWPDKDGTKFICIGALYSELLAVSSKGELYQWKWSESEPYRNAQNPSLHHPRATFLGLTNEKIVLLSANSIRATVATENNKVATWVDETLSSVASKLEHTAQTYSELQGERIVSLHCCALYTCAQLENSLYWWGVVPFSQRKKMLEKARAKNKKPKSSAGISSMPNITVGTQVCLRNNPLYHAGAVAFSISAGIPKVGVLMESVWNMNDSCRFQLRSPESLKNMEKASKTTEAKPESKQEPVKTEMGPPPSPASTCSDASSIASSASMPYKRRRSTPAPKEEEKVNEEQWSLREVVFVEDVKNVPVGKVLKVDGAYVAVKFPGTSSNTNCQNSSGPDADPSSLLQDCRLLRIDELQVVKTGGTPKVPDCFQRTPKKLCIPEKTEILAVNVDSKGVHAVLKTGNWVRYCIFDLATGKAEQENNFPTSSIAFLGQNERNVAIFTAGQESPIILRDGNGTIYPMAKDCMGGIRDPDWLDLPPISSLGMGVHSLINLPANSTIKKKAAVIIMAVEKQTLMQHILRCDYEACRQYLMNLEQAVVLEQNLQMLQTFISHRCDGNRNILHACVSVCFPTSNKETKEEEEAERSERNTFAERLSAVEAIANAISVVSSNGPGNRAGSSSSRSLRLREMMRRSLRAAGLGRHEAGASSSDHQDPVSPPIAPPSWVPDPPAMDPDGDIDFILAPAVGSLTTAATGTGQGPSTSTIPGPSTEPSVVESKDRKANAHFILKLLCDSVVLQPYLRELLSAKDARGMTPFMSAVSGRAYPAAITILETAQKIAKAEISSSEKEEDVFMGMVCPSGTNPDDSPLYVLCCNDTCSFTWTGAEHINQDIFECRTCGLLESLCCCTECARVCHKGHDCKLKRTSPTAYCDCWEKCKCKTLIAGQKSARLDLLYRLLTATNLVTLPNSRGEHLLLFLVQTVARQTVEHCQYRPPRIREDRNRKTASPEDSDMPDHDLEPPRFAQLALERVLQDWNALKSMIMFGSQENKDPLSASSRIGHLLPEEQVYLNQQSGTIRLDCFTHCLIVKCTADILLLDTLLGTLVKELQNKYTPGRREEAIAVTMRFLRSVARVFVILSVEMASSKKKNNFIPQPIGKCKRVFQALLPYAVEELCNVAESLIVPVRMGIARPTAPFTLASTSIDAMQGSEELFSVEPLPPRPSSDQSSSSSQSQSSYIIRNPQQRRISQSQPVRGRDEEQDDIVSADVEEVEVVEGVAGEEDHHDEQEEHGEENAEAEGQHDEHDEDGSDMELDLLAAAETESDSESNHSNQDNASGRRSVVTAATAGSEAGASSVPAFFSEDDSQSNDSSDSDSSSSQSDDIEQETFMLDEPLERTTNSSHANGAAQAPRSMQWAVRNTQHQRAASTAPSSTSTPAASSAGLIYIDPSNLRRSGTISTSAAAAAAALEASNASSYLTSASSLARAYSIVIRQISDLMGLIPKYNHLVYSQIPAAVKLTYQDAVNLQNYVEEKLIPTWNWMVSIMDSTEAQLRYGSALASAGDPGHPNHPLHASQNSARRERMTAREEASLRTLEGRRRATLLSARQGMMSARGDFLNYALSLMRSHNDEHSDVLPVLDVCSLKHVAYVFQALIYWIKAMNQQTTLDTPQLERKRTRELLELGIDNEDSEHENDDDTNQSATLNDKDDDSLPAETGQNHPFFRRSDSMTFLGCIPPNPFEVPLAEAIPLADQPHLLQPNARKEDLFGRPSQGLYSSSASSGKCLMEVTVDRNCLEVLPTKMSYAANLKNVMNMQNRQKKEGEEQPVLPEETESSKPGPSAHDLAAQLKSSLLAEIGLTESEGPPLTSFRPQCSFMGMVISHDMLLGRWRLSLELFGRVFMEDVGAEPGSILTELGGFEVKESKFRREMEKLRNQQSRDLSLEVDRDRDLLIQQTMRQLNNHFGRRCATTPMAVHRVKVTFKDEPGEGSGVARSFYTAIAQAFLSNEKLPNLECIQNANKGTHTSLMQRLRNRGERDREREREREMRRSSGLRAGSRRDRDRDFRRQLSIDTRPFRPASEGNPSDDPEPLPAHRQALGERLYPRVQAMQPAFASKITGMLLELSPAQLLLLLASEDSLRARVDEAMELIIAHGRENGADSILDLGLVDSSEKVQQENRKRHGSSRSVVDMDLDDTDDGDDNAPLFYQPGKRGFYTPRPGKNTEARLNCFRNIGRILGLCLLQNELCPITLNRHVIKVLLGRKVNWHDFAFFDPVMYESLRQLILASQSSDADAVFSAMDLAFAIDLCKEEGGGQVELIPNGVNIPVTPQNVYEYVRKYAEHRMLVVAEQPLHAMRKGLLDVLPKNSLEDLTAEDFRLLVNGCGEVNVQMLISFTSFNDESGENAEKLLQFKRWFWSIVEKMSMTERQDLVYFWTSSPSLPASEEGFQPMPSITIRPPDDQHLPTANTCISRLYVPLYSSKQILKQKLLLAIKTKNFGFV
UniProt Q15154: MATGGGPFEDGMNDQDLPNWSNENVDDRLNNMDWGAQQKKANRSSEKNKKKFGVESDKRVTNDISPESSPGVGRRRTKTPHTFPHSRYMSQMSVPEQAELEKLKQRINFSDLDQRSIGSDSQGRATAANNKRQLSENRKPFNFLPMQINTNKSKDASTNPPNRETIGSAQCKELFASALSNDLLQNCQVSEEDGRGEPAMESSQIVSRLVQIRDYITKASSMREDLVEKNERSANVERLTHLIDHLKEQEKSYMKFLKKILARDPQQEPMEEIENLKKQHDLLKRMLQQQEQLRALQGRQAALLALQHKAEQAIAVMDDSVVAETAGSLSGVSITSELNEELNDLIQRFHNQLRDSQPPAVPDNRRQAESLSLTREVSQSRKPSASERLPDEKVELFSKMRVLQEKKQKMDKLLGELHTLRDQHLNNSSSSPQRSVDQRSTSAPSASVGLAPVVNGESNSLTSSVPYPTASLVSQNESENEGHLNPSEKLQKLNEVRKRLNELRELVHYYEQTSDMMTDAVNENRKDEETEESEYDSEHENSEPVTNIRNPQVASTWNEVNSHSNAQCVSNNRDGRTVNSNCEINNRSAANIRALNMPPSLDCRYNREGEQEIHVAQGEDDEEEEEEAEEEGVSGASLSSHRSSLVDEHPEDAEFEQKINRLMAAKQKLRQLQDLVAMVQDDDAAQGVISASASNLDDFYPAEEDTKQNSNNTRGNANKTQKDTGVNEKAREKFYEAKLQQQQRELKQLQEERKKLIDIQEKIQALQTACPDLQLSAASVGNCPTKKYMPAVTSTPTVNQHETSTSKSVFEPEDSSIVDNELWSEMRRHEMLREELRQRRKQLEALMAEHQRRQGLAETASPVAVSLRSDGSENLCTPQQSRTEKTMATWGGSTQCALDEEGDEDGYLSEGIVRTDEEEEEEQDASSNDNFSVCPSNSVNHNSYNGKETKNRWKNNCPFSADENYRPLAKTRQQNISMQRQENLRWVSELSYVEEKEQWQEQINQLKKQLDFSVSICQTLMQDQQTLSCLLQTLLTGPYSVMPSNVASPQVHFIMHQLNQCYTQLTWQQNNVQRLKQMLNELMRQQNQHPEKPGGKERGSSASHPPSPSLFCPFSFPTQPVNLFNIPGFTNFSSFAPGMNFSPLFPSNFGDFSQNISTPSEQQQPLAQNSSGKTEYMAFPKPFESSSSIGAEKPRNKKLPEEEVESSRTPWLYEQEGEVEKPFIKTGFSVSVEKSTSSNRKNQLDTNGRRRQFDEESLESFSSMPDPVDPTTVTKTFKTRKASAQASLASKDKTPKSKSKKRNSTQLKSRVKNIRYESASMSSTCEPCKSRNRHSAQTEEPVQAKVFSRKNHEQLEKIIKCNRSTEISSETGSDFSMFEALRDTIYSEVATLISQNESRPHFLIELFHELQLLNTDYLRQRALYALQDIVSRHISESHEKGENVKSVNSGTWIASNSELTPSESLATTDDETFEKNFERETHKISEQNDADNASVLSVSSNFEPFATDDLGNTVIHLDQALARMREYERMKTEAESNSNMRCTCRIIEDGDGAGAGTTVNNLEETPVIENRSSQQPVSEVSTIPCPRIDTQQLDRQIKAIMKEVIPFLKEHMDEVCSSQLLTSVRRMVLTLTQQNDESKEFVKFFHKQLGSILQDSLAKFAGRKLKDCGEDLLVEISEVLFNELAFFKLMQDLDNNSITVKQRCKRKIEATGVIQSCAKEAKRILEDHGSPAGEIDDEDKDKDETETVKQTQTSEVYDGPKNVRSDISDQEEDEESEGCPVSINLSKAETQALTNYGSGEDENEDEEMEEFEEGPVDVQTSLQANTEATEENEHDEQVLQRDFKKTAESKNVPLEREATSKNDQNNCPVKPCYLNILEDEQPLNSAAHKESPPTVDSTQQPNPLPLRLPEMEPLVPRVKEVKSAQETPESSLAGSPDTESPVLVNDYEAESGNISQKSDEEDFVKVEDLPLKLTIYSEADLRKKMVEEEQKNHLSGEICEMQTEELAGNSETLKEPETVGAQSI

These are yes or no findings as the source states them, for the method shown. Binding seen in cells or lysates may run through a third protein.

For “PCM1 (pericentriolar material 1) (from UniProt Q15154 1-2024)”, the binding result is listed as “no binding”.

These data come from doi:10.1101/090100.
